Our source for the binding signal values is paper PMC7862700.

Amino acid sequences for entries named in this document (tags omitted). A change or cut given only in a name is not applied to a line headed by its entry.
UniProt P32519: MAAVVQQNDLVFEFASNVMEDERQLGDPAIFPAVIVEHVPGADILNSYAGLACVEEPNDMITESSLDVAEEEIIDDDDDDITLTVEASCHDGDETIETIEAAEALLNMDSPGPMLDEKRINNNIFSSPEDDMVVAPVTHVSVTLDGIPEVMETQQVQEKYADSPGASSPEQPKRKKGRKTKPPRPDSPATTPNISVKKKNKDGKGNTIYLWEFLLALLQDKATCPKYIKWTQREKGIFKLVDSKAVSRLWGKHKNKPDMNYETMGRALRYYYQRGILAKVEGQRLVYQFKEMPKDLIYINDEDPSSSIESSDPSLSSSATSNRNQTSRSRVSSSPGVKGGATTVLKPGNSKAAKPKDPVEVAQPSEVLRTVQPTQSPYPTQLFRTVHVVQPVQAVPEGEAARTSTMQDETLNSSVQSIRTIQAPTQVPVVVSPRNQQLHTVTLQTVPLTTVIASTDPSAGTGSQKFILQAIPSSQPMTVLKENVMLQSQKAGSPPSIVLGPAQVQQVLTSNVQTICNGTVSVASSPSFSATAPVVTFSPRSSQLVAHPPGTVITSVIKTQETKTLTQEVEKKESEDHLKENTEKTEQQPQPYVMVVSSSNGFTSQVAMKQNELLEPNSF
UniProt P50549: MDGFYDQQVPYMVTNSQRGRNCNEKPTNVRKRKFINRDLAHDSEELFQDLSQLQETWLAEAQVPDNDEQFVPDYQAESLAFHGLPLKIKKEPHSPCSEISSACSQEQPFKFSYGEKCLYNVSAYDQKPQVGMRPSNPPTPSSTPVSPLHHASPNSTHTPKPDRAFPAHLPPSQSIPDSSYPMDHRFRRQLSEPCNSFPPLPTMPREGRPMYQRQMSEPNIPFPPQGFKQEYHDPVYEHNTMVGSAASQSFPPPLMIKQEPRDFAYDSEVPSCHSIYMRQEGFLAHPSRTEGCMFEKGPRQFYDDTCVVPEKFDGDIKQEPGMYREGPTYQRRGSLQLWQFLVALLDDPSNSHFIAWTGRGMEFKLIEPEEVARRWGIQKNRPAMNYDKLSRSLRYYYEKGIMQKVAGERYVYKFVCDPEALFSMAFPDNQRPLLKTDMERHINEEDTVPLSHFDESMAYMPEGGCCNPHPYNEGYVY

Holding throughout (test): DAPPL (digital affinity profiling via proximity ligation, sequencing)
Common to all, as to settings: 10 mM Tris-HCl pH 7.5, 50 mM NaCl, 1 mM DTT, 4% glycerol, room temperature, 30 min; GST-TFs on glutathione beads, 16-mer random dsDNA library, 0.1% …; high values mean tight binding; double strand, one strand shown; scale: fold enrichment (6-mer frequency, TF over GST control)

One assay has as its target T1, ERG (UniProt P11308).
T1 sequence: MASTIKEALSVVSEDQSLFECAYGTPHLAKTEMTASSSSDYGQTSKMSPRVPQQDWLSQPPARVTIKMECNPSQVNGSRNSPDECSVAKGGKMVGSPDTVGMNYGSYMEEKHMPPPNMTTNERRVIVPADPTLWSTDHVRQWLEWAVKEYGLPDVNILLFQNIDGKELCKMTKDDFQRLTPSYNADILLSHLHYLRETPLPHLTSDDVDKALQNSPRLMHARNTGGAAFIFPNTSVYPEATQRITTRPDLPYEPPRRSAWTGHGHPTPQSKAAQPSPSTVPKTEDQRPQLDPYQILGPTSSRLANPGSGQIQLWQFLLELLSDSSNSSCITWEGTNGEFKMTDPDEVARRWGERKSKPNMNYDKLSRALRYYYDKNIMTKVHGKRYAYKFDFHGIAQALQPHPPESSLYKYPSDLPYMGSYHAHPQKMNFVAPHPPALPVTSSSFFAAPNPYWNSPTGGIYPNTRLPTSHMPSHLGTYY

The target in another assay is ELF1 (UniProt P32519).
For another assay, the target named is T2, ELK4 (UniProt P28324-2).
T2 sequence: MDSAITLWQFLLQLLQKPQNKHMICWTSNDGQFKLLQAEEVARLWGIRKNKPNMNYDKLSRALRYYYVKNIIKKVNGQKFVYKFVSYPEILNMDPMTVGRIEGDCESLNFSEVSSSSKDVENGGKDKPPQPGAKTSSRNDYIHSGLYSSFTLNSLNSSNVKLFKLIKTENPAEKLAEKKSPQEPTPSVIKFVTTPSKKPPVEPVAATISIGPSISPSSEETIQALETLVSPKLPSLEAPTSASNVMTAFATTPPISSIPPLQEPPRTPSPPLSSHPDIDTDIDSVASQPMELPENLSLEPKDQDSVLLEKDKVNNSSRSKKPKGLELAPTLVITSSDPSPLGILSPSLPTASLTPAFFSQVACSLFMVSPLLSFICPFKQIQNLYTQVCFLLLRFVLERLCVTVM

In the next assay the target is T3, ETV4 (UniProt P43268).
T3 sequence: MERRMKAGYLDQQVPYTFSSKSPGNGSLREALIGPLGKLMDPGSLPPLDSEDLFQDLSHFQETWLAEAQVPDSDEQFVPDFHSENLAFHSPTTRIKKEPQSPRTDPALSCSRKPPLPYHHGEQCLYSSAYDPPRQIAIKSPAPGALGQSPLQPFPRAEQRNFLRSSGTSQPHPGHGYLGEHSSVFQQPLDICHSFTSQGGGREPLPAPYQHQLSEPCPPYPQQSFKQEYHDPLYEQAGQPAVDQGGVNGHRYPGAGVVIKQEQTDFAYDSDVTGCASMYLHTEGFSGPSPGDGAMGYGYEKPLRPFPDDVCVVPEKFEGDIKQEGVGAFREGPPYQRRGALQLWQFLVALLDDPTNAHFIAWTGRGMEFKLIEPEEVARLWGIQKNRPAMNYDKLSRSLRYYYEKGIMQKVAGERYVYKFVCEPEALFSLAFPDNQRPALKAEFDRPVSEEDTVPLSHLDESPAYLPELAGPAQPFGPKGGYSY

For a further assay, the target named is ETV1 (UniProt P50549).
In the next assay the target is T4, ERF (UniProt P50548).
T4 sequence: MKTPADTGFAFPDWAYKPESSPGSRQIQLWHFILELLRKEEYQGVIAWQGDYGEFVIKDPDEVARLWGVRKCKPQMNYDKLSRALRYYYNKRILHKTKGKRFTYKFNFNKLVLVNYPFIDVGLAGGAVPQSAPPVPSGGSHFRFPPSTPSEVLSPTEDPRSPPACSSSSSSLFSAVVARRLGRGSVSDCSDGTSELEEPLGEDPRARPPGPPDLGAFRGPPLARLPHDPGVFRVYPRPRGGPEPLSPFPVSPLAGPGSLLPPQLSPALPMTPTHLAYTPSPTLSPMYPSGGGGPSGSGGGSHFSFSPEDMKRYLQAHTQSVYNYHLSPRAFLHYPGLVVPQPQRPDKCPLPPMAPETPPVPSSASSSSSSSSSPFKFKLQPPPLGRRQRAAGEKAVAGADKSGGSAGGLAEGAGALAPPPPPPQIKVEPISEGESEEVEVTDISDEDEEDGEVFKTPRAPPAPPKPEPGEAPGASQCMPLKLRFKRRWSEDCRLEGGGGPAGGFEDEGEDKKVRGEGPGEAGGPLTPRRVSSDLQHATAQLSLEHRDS

This is a selection; strong and weak results do not stand in their true shares. For part of these data: At the low end of the ranking the order means little. Some of the results follow. For part of these data: Construct or isoform of the protein are uncertain.

Regarding AGCATG, the binding signal was found to be 0.94 with ERG; 0.897 in the assay with ELF1; 0.936 in the assay with ELK4; 0.994 in the assay with ETV4; 0.951 in the assay with ETV1; 0.911 with ERF.
As to GTTAGC, the binding signal in the assay with ERG is 0.879; with ELF1, 0.972; with ELK4, 0.977; with ETV4, 0.941; with ETV1, 0.913.
The like results for CATAAG were, in that order, 0.993, 0.91, 0.95, 0.975 and 0.961.
In the case of CGCAAT, the binding signal is 0.898 in the assay with ERG; 0.937 with ELF1; 1 with ELK4; 0.906 with ETV4; 0.984 in the assay with ETV1; 0.958 with ERF.
As for CAGCAC, the binding signal was determined as 0.935 with ERG; 1.02 in the assay with ELF1; 0.839 with ELK4; 0.994 in the assay with ETV4; 0.987 with ETV1.
For TGAAGA, in that order: 0.962, 0.998, 1.02, 0.99 and 0.94.
Turning to GGTTGT, the binding signal is 0.843 with ERG; 0.896 with ELF1; 0.979 with ELK4; 0.946 with ETV4; 0.882 in the assay with ETV1; 0.877 with ERF.
With GAAAGG, the binding signal was 0.891 with ERG; 0.922 with ELF1; 0.777 in the assay with ELK4; 0.957 in the assay with ETV4; 0.972 in the assay with ETV1.
As for TCATAG, the binding signal in the assay with ERG worked out at 0.9; in the assay with ELF1, 0.98; with ELK4, 0.985; with ETV4, 0.952; with ETV1, 0.978.
Take CCGCGC: the binding signal with ERG came out at 1.2; with ELF1, 1.18; in the assay with ELK4, 1.35; with ETV4, 1.15; in the assay with ETV1, 1.06.
TAGGAT: the binding signal with ERG was 1.07; with ELF1, 0.934; with ELK4 it was 0.947; in the assay with ETV4 it was 0.982; with ETV1, 0.913.
CTGTAG: the binding signal with ERG came to 0.931; in the assay with ELF1, 0.918; in the assay with ELK4 it was 0.996; with ETV4 it was 1; with ETV1 it was 0.969.
For the sequence TTAGAG, the binding signal came out at 0.83 with ERG; 0.914 in the assay with ELF1; 0.854 with ELK4; 0.822 with ETV4; 0.84 in the assay with ETV1; 0.934 with ERF.
For TTAGGA, the binding signal with ERG amounted to 0.888; with ELF1, 0.918; with ELK4 it was 0.945; with ETV4, 0.913; with ETV1, 0.911; with ERF, 0.996.
With TTGGCG, the binding signal was 0.907 with ERG; 0.972 with ELF1; 0.857 in the assay with ELK4; 1.04 in the assay with ETV4; 0.995 with ETV1.
CCAAGT: the binding signal is 0.88 with ERG; 0.932 with ELF1; 0.907 with ELK4; 0.894 in the assay with ETV4; 0.808 with ETV1; 0.999 in the assay with ERF.
With GTAGAT, the binding signal stood at 0.964 with ERG; 0.951 in the assay with ELF1; 1.01 with ELK4; 0.897 with ETV4; 0.912 in the assay with ETV1.
As for ACATAG, the binding signal with ERG worked out at 0.976; with ELF1, 1.07; with ELK4 it was 0.978; in the assay with ETV4 it was 0.999; with ETV1, 0.997.
Consider TGATTG, for which the binding signal came to 1.08 with ERG; 1.06 in the assay with ELF1; 0.97 with ELK4; 1.09 with ETV4; 1.1 with ETV1.
In the case of CAGAAC, the binding signal with ERG amounted to 0.889; with ELF1, 0.938; with ELK4, 0.814; in the assay with ETV4, 0.805; in the assay with ETV1 it was 0.877; with ERF it was 0.93.
With GTAGAA, the binding signal with ERG is 0.89; with ELF1 it was 0.982; in the assay with ELK4 it was 0.964; in the assay with ETV4, 0.961; with ETV1, 0.941; with ERF, 0.918.
Take CAGTAT: the binding signal with ERG turned out to be 0.935; in the assay with ELF1, 0.99; with ELK4, 1.06; with ETV4, 0.953; in the assay with ETV1, 0.921.
For the sequence TCGAGA, the binding signal with ERG turned out to be 0.571; in the assay with ELF1 it was 0.621; with ELK4, 0.571; with ETV4, 0.633; in the assay with ETV1, 0.598; in the assay with ERF it was 0.616.
Turning to AGTGTC, the binding signal amounted to 1.08 with ERG, 0.954 in the assay with ELK4, 0.976 with ETV4 and 0.996 with ERF.
In the case of TTCGAC, the binding signal in the assay with ERG was 1.43; with ELK4 it was 1.43; with ETV4, 1.47; with ERF, 1.43.
